Laboratory results taken from the supplement of paper PMC11006884.
The entries are a selection whose mix differs from that of the whole data set.

Chains of the proteins cited; added tags and fusions are not shown. Lines headed by an entry give the natural chain unless they say otherwise; changes in a name come on top.
UniProt Q01518, whole entry: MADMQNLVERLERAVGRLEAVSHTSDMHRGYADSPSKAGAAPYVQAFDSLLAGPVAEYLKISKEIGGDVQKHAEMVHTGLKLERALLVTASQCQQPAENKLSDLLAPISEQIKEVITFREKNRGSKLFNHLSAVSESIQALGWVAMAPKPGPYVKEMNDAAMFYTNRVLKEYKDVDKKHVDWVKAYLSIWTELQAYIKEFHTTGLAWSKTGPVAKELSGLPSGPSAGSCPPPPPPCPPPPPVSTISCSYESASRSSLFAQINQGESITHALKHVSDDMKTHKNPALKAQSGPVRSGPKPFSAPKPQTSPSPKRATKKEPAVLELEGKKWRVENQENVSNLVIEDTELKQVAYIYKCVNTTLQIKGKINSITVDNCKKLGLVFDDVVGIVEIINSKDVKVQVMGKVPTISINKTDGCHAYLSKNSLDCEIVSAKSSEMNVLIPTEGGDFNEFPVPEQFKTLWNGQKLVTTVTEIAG
UniProt Q00796: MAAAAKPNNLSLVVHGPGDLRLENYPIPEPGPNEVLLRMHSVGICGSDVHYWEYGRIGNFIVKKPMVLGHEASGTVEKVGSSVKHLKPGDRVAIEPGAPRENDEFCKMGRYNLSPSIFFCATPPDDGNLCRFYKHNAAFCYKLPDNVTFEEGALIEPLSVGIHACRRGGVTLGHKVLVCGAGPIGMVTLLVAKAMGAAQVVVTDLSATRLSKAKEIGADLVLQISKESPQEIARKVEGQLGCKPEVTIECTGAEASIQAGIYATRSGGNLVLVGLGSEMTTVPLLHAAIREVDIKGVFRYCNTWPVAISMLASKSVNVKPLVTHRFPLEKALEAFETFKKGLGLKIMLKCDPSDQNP
UniProt P62995: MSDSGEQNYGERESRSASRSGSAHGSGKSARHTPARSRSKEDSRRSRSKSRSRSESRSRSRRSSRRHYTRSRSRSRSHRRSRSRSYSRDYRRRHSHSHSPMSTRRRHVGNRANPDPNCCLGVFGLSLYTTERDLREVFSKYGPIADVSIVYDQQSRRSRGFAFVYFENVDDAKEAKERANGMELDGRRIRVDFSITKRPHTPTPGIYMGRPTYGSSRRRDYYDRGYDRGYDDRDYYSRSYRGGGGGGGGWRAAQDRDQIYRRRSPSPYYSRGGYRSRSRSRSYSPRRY
UniProt Q00013: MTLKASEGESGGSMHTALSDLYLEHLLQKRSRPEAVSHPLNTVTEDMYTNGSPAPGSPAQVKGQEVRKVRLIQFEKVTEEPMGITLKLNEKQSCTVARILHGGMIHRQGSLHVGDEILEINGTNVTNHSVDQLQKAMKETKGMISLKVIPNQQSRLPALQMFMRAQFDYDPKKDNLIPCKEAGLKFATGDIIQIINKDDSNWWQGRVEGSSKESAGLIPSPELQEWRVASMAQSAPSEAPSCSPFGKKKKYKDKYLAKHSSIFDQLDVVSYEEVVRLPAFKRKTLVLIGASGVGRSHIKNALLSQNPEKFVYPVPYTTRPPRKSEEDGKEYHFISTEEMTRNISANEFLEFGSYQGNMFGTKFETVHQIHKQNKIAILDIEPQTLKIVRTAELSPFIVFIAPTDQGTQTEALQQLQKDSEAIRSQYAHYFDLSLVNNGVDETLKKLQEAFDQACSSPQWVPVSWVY
UniProt P78527, whole entry, looked up: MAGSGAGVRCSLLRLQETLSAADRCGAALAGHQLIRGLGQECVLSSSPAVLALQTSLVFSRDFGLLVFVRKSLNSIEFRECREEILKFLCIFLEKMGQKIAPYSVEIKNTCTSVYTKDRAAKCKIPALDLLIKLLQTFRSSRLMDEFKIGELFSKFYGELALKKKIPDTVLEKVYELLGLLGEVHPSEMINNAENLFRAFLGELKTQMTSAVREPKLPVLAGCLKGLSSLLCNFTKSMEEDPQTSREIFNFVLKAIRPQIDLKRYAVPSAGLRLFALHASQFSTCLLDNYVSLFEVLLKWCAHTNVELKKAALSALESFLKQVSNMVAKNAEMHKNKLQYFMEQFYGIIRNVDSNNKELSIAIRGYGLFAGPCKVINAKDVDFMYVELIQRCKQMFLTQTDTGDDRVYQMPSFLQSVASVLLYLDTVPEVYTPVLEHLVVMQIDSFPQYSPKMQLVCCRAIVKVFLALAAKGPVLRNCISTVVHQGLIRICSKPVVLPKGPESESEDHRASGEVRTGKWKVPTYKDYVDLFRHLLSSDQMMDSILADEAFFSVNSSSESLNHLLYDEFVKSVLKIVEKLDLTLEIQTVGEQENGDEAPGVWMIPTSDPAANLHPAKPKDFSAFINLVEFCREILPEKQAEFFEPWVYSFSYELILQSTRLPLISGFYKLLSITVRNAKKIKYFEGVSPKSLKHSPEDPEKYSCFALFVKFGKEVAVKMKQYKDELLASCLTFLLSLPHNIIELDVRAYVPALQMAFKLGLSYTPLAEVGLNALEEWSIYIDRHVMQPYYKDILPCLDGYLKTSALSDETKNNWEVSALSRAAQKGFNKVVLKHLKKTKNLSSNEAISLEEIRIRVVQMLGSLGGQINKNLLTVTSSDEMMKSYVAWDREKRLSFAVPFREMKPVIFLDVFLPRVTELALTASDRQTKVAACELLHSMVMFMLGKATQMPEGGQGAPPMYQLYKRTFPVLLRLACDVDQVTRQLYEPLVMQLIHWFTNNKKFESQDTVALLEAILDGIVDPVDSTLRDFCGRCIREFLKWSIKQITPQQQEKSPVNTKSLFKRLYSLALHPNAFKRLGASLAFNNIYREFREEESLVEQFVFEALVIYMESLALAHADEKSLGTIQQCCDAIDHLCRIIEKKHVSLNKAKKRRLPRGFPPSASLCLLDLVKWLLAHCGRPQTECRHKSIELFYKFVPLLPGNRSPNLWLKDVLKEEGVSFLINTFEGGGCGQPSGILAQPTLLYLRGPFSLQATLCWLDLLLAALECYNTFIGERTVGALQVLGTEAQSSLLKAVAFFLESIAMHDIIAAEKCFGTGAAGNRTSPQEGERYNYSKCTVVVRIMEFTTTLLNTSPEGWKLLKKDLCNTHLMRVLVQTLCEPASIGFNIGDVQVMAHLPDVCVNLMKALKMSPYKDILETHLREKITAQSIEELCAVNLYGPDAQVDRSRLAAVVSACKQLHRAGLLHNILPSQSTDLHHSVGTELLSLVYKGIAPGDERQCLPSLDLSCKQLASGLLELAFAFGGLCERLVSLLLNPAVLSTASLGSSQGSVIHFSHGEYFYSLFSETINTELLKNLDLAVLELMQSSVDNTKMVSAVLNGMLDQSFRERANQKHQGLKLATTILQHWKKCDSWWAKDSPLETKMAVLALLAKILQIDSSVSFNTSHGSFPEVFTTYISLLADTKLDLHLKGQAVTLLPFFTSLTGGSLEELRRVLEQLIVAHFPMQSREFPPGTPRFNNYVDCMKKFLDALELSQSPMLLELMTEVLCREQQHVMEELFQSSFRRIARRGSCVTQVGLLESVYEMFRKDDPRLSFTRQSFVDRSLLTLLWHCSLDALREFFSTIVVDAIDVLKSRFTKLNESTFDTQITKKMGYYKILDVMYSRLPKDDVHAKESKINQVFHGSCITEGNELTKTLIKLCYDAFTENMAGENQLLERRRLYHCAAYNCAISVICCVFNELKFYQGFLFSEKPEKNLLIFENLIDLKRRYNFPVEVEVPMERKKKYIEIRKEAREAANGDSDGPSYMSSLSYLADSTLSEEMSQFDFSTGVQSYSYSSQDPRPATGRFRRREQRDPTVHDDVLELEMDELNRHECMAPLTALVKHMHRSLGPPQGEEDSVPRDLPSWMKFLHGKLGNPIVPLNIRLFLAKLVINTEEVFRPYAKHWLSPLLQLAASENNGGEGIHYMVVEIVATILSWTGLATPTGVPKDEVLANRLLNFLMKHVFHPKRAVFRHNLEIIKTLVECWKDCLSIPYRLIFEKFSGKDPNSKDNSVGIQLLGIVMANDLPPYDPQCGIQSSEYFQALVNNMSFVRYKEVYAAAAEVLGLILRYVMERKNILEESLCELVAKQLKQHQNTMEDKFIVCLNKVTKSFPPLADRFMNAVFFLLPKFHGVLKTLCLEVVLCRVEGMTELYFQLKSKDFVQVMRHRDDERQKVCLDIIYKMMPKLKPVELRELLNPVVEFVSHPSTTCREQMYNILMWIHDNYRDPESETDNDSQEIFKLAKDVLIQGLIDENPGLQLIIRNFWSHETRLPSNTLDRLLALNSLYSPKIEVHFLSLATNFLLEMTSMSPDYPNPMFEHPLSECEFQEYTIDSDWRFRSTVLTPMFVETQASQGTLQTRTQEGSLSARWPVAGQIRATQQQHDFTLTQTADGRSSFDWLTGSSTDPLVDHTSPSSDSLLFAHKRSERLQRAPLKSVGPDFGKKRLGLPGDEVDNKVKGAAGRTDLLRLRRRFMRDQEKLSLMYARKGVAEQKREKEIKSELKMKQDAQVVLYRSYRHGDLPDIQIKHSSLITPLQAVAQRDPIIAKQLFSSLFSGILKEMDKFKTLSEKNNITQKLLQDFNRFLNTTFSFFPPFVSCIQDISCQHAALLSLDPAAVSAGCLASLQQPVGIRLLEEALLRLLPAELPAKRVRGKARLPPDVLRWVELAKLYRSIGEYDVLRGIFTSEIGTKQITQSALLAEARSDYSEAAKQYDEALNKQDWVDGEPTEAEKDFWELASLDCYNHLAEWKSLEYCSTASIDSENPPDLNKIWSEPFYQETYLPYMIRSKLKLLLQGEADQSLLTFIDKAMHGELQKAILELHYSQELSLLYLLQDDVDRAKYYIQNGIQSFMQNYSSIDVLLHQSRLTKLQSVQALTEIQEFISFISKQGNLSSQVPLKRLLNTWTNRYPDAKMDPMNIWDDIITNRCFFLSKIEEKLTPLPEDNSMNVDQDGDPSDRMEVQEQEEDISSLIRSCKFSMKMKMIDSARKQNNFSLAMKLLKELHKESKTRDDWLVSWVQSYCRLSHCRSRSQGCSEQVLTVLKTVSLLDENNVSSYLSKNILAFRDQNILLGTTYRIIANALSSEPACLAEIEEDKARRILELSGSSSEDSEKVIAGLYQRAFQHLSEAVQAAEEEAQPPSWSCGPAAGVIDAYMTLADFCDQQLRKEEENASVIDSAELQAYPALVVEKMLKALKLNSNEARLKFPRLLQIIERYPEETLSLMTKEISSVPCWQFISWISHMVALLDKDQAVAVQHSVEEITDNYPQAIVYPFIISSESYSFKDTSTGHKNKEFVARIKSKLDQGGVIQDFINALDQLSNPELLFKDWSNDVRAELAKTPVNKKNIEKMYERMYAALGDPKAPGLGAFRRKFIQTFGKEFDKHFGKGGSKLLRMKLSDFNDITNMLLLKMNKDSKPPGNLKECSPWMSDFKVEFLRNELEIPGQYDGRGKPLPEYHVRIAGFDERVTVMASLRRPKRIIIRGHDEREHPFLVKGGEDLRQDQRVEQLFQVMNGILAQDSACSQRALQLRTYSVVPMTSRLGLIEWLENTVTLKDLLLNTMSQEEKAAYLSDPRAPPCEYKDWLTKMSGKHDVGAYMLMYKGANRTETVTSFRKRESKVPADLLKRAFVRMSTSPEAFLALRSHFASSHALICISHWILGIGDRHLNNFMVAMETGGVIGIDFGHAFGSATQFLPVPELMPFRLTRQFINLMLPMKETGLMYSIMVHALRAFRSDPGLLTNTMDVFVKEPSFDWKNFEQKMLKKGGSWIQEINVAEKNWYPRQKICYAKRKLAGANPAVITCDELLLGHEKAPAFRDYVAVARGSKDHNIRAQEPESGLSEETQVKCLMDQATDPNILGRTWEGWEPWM
UniProt P78549: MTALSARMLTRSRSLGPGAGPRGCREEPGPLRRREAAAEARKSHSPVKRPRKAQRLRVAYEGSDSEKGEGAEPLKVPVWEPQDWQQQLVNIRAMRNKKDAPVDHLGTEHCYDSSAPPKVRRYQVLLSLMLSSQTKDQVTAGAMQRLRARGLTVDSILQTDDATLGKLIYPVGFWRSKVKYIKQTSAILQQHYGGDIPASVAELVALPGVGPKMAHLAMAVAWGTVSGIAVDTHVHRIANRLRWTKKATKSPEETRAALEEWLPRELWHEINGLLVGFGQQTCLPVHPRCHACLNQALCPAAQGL
UniProt P68363, whole entry, looked up: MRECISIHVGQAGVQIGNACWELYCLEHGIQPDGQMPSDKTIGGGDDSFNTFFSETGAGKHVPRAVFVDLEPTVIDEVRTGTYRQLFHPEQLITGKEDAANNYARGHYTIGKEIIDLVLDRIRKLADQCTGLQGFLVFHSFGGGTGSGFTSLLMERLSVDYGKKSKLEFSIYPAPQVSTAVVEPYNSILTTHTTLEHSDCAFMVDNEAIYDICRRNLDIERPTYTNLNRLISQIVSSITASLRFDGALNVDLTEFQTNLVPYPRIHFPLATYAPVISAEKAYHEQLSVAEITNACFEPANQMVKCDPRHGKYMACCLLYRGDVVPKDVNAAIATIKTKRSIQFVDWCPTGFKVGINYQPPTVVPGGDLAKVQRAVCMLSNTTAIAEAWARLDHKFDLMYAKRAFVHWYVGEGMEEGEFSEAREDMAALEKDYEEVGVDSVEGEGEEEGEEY

The targets below were run with COC(=O)C#Cc1ccccc1 [methyl 3-phenylpropiolate] (assay: log2 ratio of iodoacetamide-alkyne labeling of the cysteine site, DMSO over compound (competition); higher = stronger covalent engagement of the cysteine by the compound, active = 1 or more). Settings: 500 µM; treatment time 1 h; system: HEK293T cell lysate.
Outline: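 Electrophile (500 µM) or vehicle was added to HEK293T lysate (2 mg/mL) for 1 h at ambient temperature before iodoacetamide alkyne labelling (1 h) and click coupling to sCIP-TMT reagents. After pooling, overnight trypsin digestion at 37 °C, streptavidin enrichment and acid elution, peptides were measured by Orbitrap Eclipse LC-MS/MS with FAIMS and quantified in FragPipe. Each cysteine's log2 competition ratio compares mean control-channel with mean compound-channel reporter intensity, control over compound. Data came from duplicate channels across three replicates, excluding cysteines quantified in only one replicate.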
For XPC C60 (UniProt Q01831), the “log2 ratio of iodoacetamide-alkyne labeling” value (from here on “log2 ratio”) was inactive: 0.493. In the case of CAP1 C93 (UniProt Q01518), the “log2 ratio” value is reported as inactive: 0.152. In the case of SORD C120 (UniProt Q00796), the “log2 ratio” value is reported as inactive: 0.0439. In the case of UniProt P62995_C119, the “log2 ratio” value is reported as inactive: 0.019. For CLTC C459 (UniProt Q00610), the “log2 ratio” value was inactive: 0.282. For MPP1 C454 (UniProt Q00013), the “log2 ratio” value was inactive: 0.144. UniProt P78527_C703 was tested, and the “log2 ratio” value was inactive: -0.0289. In the case of MRPS5 C377 (UniProt P82675), the “log2 ratio” value is reported as inactive: 0.118. With NTHL1 C290 (UniProt P78549) the “log2 ratio” value was inactive: 0.0184. SKP1 C120 (UniProt P63208) was tested, and the “log2 ratio” value was inactive: 0.0376. SPTBN1 C112 (UniProt Q01082) was tested, and the “log2 ratio” value was inactive: 0.622. UniProt P78527_C3781 was tested, and the “log2 ratio” value was inactive: 0.281. In the case of UniProt P62854_C77, the “log2 ratio” value is reported as inactive: 0.434. For UniProt P68363_C315, the “log2 ratio” value was inactive: 0.0941. In the case of CDC42EP1 C161 (UniProt Q00587), the “log2 ratio” value is reported as inactive: 0.313.
